This note sets out measurements from US20190010493A1 (published 2019).

Sequences of proteins named here, by UniProt entry; tags and fusion partners are left off. A change or cut given only in a name is not applied to a line headed by its entry.
UniProt Q9WVC7: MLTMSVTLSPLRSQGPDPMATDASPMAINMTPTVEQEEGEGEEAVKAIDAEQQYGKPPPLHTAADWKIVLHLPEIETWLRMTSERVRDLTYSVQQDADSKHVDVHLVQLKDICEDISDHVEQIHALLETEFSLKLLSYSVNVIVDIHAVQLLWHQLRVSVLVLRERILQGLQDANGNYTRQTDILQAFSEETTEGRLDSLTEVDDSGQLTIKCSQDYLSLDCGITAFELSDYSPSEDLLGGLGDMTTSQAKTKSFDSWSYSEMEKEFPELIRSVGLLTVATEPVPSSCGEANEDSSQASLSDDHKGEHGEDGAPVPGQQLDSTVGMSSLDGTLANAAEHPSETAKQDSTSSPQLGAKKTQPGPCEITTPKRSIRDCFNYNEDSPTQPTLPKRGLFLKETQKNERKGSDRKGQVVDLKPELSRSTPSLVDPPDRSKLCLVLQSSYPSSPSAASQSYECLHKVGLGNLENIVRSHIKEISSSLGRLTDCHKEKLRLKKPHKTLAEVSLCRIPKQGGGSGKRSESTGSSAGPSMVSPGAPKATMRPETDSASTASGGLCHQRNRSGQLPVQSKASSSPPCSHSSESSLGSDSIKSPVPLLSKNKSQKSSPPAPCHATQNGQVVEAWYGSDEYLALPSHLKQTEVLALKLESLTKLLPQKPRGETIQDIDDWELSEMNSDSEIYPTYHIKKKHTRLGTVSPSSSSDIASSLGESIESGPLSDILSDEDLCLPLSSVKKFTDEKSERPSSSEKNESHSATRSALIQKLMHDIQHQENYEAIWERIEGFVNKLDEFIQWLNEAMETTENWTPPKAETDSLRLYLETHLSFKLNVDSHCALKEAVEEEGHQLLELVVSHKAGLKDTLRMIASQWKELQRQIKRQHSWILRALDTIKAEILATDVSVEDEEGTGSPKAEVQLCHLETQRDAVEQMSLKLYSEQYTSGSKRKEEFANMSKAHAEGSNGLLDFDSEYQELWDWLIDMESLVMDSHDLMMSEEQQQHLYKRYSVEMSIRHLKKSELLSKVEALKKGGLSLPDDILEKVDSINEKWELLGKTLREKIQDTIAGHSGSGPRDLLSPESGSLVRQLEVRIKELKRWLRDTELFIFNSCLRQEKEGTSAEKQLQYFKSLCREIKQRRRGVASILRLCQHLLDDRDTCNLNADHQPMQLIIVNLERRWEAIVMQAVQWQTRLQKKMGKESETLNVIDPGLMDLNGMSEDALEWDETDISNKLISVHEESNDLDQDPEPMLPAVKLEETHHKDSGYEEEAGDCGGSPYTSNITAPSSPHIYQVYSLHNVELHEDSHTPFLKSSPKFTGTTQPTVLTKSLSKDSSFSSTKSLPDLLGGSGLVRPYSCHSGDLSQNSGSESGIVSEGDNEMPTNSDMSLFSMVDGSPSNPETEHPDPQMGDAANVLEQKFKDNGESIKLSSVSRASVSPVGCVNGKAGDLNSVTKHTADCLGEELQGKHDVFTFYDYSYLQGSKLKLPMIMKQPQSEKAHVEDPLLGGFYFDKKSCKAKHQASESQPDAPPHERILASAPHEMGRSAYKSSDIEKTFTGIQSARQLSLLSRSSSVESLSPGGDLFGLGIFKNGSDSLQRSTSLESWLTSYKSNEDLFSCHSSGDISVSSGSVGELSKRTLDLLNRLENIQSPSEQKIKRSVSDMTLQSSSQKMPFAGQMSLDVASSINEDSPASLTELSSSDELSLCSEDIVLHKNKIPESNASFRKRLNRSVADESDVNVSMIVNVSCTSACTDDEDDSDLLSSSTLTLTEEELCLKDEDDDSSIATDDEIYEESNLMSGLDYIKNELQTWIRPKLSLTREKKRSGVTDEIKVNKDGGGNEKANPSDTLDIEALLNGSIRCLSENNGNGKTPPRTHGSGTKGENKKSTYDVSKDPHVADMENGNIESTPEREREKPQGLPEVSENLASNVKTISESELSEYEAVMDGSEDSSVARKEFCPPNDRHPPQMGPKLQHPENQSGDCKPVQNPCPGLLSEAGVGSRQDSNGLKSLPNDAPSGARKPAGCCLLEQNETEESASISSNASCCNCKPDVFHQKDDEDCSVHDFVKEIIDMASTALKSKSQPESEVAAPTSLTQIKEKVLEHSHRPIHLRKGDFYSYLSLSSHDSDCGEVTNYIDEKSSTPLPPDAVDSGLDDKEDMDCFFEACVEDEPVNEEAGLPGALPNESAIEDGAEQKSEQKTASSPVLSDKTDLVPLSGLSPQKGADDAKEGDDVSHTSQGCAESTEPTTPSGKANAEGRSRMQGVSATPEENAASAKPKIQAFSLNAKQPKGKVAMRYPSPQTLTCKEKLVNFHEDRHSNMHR

The target of the test is full-length mAKAPβ (muscle A-kinase anchoring protein, beta alternatively-spliced form) (rat) (UniProt Q9WVC7). Put plainly: co-immunoprecipitation.

No constants are given. Whether binding was seen depends on the method and setting. Binding seen in cells or lysates may run through a third protein. Some results given as binding are weak or reduced against the parent protein; the word gives no strength. Sequences can lack the tags named with a protein.

In the case of MDLSMKKFAVRRFFSVYLRRKSRSKSSSLSRLEEEGVVKEID (peptide, not shown: small tags and cut ends) [HA-RSK3 1 to 42 (unique N-terminal domain of RSK3)], the binding result is given as “binds”.
